Laboratory results reported in patent publication US20080103095A1.
Results are given in words; binding and its absence hold for the method and conditions named. In cells and extracts the contact can be indirect. Some entries that bind do so weakly or less than the wild type.

Sequences of proteins named here, by UniProt entry; tags and fusion partners are left off. Residues count along the entry.
UniProt P14602: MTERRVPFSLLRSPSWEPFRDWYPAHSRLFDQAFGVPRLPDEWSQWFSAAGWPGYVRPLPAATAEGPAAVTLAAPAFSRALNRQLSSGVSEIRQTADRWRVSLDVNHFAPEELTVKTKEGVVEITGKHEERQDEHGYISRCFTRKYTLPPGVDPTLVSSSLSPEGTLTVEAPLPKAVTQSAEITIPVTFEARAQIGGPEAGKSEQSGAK
UniProt P63017, residues 2-646: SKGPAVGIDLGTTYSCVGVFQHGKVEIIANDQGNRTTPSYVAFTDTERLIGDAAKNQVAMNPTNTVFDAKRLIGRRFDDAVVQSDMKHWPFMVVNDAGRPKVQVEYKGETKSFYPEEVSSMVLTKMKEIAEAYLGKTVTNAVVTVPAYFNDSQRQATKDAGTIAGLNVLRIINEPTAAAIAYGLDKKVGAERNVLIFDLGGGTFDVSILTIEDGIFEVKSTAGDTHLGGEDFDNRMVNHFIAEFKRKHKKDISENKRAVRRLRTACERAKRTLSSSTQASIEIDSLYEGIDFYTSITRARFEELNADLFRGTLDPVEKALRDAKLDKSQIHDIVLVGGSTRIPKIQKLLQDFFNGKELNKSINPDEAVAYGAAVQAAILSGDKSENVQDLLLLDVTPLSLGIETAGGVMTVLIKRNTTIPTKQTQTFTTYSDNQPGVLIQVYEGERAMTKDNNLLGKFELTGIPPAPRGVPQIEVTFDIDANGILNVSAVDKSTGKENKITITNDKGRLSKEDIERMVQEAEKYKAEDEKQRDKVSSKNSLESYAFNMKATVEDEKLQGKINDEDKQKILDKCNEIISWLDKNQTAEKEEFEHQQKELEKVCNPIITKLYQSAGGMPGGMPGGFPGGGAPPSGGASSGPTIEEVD
UniProt Q61699, residues 2-858: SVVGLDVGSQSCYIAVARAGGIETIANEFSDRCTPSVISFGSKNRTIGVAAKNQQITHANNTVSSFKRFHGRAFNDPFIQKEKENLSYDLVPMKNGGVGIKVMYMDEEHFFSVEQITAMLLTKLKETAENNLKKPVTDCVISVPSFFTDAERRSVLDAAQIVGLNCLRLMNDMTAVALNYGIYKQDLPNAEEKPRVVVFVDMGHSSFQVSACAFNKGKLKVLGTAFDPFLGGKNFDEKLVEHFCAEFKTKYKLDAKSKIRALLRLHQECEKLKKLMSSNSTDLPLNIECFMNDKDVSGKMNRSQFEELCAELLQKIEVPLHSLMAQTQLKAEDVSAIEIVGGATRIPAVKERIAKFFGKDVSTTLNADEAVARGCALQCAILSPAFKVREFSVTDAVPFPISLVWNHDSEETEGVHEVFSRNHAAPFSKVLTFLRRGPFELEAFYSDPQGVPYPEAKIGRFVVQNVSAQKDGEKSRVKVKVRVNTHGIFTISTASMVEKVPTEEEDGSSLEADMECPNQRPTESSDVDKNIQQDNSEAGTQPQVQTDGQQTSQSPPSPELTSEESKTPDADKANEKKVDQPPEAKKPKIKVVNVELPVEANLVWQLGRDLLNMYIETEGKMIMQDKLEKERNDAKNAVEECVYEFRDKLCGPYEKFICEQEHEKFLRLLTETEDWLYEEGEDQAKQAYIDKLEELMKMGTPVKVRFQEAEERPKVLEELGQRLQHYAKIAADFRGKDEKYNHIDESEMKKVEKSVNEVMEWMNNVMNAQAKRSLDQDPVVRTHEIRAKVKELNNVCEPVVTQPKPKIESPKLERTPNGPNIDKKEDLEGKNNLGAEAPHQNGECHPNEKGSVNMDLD

Key:
[1] = molecular target: native hsp25 in Colon26 cells (mouse (murine colon 26 tumor)) (UniProt P14602); test: reciprocal co-immunoprecipitation, Colon26 cell extracts and hsp110 fractions
[2] = molecular target: native hsc70 in Colon26 cells (mouse (murine colon 26 tumor)) (UniProt P63017); test: as above
[3] = molecular target: native hsp25 in Colon26 cells (mouse (murine colon 26 tumor)) (UniProt P14602); test: co-purification and co-immunoprecipitation, native complex
[4] = molecular target: native hsc70 in Colon26 cells (mouse (murine colon 26 tumor)) (UniProt P63017); test: as above
[5] = molecular target: native hsp25 in Colon26 cells (mouse (murine colon 26 tumor)) (UniProt P14602); test: co-purification and co-immunoprecipitation, Colon26 cells
[6] = molecular target: native hsc70 in Colon26 cells (mouse (murine colon 26 tumor)) (UniProt P63017); test: as above
[7] = molecular target: native hsp25 in Colon26 cells (mouse (murine colon 26 tumor)) (UniProt P14602); test: co-purification (Con A, Mono Q, size exclusion) from Colon26 cells, immunoblot
[8] = molecular target: native hsc70 in Colon26 cells (mouse (murine colon 26 tumor)) (UniProt P63017); test: as above

Row | binding [1] | binding [2] | binding [3] | binding [4] | binding [5] | binding [6] | binding [7] | binding [8] | Substance
1 | binds |  |  |  |  |  |  |  | native hsc70 in Colon26 cells (from UniProt P63017 2-646)
2 | binds | binds | binds | binds | binds | binds | binds | binds | native hsp110 from murine tumor cells (Colon26 / colon 26, Meth A) and liver (from UniProt Q61699 2-858)
